Results reported in patent publication US20250250301A1, “DE NOVO DESIGNED BINDERS TARGETING HUMAN EPCAM AND PDL1 RECEPTORS” (University of Washington, priority 2022, published 2025).
Not every detail of the peptide structures is certain; ends, links or a residue may be inferred. Where no end group is shown, it is not given here.

Columns and labels:
[1] = Circular dichroism folding and thermal stability; format: physicochemical; conditions: with and without AF594 label
human PDL1 receptor = human PDL1 receptor (Homo sapiens, UniProt Q9NZQ7); assay: Octet binding to immobilized human PDL1; conditions: steady state analysis
human EpCAM receptor = biological target: T1, human EpCAM receptor (Homo sapiens, UniProt P16422); assay: Octet binding to immobilized human EpCAM; conditions: kinetic fitting to association and dissociation
T1 sequence (P16422 24-265 limits assumed): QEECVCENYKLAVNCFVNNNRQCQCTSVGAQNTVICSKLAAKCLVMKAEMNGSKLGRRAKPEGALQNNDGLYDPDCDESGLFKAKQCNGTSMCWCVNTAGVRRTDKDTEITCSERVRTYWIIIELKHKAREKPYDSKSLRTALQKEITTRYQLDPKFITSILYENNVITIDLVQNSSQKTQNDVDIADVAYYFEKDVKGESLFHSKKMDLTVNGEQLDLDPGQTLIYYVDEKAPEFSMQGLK
Protocol: In one embodiment of any of the polypeptides of the disclosure, the polypeptide bind to their targets with nanomolar affinity as measured by octet. In the octet experiments, the target protein is immobilized onto an octet sensor and the kinetics of the binder binding to the target are measured over a range of binder concentrations to determine the binders affinity.

DEDTDRVFECLNEFNELREEGDPERAREVLEEAERLAKELSDPTLESFVQAIKRVY [PDL1_L10C]
folding by circular dichroism [1]: poorly folded

DEDTDRVFELLNEFNELREEGDPERAREVLEEAERLAKELSDPTLESFVQAIKRVY [PDL1Bind_cb6]
estimated Kd (human PDL1 receptor): 2 nM

DEERLRELVEELVKELGLSERYKRTLERHLRTALEQGYDEEQIRMNLEQLAQQAREI [EpcamBind1_cb4]
estimated Kd (human EpCAM receptor): 5.6 nM

DEVQHEVHELMVRIHSLVVRGNPEEARKLLEELEELAKKTNNPSYHIAVEALEHVIN [EpcamBind2_cb10]
estimated Kd (human EpCAM receptor): 500 nM
